We go through 20 compounds from the supplement of paper PMC12889115.

The assay relates to Salmonella enterica serovar Typhimurium SL1344. The experiment in a line: bacterial growth OD600 after 18 h with compound and polymyxin B; higher = more bacterial growth (less inhibition). The following applies: 50 µM, Mueller-Hinton broth.

The other results are listed elsewhere or left out. These are raw signals, not scaled to a control.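 Primary screen: polymyxin B was added at a level permeabilizing Salmonella outer membranes while sparing inner membranes. DMSO wells, both with and without polymyxin B, established maximum growth. Plate-to-plate variation meant each plate was ranked on its own, and the lowest-OD600 compounds were selected as hits.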

As to `O=C(c1cscn1)N1CCC2(CCCN(Cc3ccc(F)c(F)c3)C2=O)C1` (stereo not given), the “bacterial growth OD600” value (polymyxin B 1 µg/mL) is 0.924. With `Cc1ccccc1-c1ccc(CN(C)Cc2nc(-c3ccccc3NS(C)(=O)=O)oc2C)cc1`, the “bacterial growth OD600” value (polymyxin B 0.75 µg/mL) worked out at 0.748. Take `CCn1cc(CNC(=O)c2ccc(OC)c(OC3CCN(C(C)C)CC3)c2)cn1`: the “bacterial growth OD600” value (polymyxin B 1 µg/mL) was 1.04. On to `O=C(CCc1ccccc1)N1CCCC(N2CCN(c3cccc(Cl)c3)CC2)C1` (stereo not given), for which, where the note is “polymyxin B 1 µg/mL”, the “bacterial growth OD600” value turned out to be 0.686.

As for `COc1cccc(-c2nc3ccc(C(=O)NCc4cc(C)n(C)n4)cc3o2)c1`, the “bacterial growth OD600” value (polymyxin B 1 µg/mL) is 1.1. The same measure, in the same setting: for `COc1ccc(CN2CCN(Cc3cc(OC)cc(OC)c3)C(CCO)C2)cc1` (stereo not given) the value was 0.845. Same read-out and setting: in the case of `CN(CCc1cnn(C)c1)Cc1cn(C)nc1-c1ccc2c(c1)OCCO2` it was 0.876. On to `CC(=O)Nc1ccc(CN2CCOc3ccc(CN4CCC(Oc5cccnc5)CC4)cc3C2)cc1`, for which, under “polymyxin B 0.75 µg/mL”, the “bacterial growth OD600” value turned out to be 0.799. In the case of `O=C(C#Cc1ccccc1)N1CCC(CO)(Cc2ccccc2Cl)CC1`, the “bacterial growth OD600” value (polymyxin B 1 µg/mL) came out at 0.08. On the same count and under the same terms, for `C[C@@H]1CN(C2CCN(C(=O)c3cc(COc4ccccc4)[nH]n3)CC2)C[C@H](C)O1` the value was 0.854. On to `CN(Cc1ccccc1)c1ncccc1CNC(=O)Cn1cccn1`, for which, under “polymyxin B 0.75 µg/mL”, the “bacterial growth OD600” value worked out at 0.704.

As for `O=C(NCc1nc(NCCCc2ccccc2)c2ccccc2n1)c1ccccc1-c1ncc[nH]1`, the “bacterial growth OD600” value (polymyxin B 0.75 µg/mL) stood at 0.771. As for `C=CCOc1ccccc1CN1CCCC(CCOC)(C(=O)OCC)C1` (stereo not given), the “bacterial growth OD600” value (polymyxin B 1 µg/mL) amounted to 1.24. `NC(=O)CCNC(=O)C1CCCN(c2nc(-c3ccccc3)nc3c2CCC3)C1` (stereo not given): the “bacterial growth OD600” value (polymyxin B 1 µg/mL) was 0.996.

On to `Cc1[nH]c2c(CNCc3cnn(C)c3C)cc(F)cc2c1C`, for which the “bacterial growth OD600” value (polymyxin B 0.75 µg/mL) stood at 0.883. On the same count and under the same terms, for `COc1cc(CN2CCc3c(C(=O)N4CCc5ccccc5C4)c(OC)cc(=O)n3CC2)ccc1F` the value was 0.818; for `COc1ccc(CCC(=O)NCCN2Cc3cc(C)ccc3OC(C)C2)cc1OC` (stereo not given), 0.852; for `FC(F)(F)CCCN1CCC(C2CCN(Cc3cccnc3)CC2)C1` (stereo not given), 0.869. On the same count and under the same terms, in the case of `CCCCNC1CCN(c2cccc(NC(=O)c3cccc(C(F)(F)F)c3)c2)CC1` it was 0.74; in that of `OC(Cc1ccccc1)c1ccc2c(c1)CN(Cc1c[nH]nc1-c1ccc(F)cc1)CCO2` (stereo not given), 0.748.
